Tested on: GABA content in brain tissue
Assay: GABA estimation in brain tissue
Type: in vivo, Wistar rats
Details: 3 mg/kg, n = 5

In the case of `CN1C(=O)CN=C(c2ccccc2)c2cc(Cl)ccc21` [Diazepam, reference compound], the “GABA content in brain tissue vs control” value (2 h after administration) is reported as “do not show significant differences” and the “GABA content in brain tissue vs control” value (7 d continuous administration) is reported as “showed significant differences”.

Source: PMC12388125, “Design, Synthesis, and Pharmacological Activity of the N-(4-(1H-1,2,4-Triazol-1-yl)phenyl)-substituted-amide Derivatives” (Molecules, 2025)
